Test results from paper PMC6197226.
These are yes or no findings as the source states them, for the method shown.

Assays:
[1] = biological target: p62 ZZ domain (aa 120-190) D129K (human) (UniProt Q13501); test: NMR titration; 1H,15N HSQC; peptide titrated into 0.1 mM uniformly 15N-labeled WT or mutated p62ZZ; 298 K; 20 mM Tris-HCl pH 7.0, 100 mM NaCl, 5 mM DTT, 8% D2O; both purified
[2] = biological target: p62 ZZ domain (aa 120-190) D147K (human) (UniProt Q13501); test: as above

binding [1]: no binding
binding [2]: no binding
Binder: KEKKECRRDHR [K100…110 (p62_(100-110)) peptide]
